Source: paper PMC10998843

What was measured:
[1] = molecular target: MtKNOX1-GFP (Medicago truncatula); assay: co-IP; MtKNOX-GFP and PINNA1-7Myc co-expressed in N. benthamiana leaves; total protein extract precipitated with GFP-Trap magnetic agarose beads, 4 °C, 4 h, 150 mM NaCl, 0.5% Triton X-100, pH 7.5; blot with anti-Myc
[2] = molecular target: MtKNOX2-GFP (Medicago truncatula); assay: as above
[3] = molecular target: MtKNOX6-GFP (Medicago truncatula); assay: as above
[4] = molecular target: MtKNOX7-GFP (Medicago truncatula); assay: as above
[5] = molecular target: MtKNOX1 MEINOX2 domain, BD fusion (Medicago truncatula); assay: two-hybrid; baits in pGBKT7 (full length or truncated MEINOX domains), prey PINNA1-AD in pGADT7; yeast strain AH109; selective medium SD/-Leu/-Trp/-His/X-a-gal/15 mM 3-AT; X-a-Gal filter assay
[6] = molecular target: MtKNOX1-BD (Medicago truncatula); assay: as above
[7] = molecular target: MtKNOX2 MEINOX2 domain, BD fusion (Medicago truncatula); assay: as above
[8] = molecular target: MtKNOX2-BD (Medicago truncatula); assay: as above
[9] = molecular target: MtKNOX6 MEINOX2 domain, BD fusion (Medicago truncatula); assay: as above
[10] = molecular target: MtKNOX6-BD (Medicago truncatula); assay: as above
[11] = molecular target: MtKNOX7 MEINOX1 domain, BD fusion (Medicago truncatula); assay: as above
[12] = molecular target: MtKNOX7-BD (Medicago truncatula); assay: as above
[13] = molecular target: MtKNOX1-YN (Medicago truncatula); assay: split reporter; BiFC: MtKNOX-YN and PINNA1-YC co-infiltrated into N. benthamiana leaves by Agrobacterium GV3101; YFP signal by confocal microscopy
[14] = molecular target: MtKNOX2-YN (Medicago truncatula); assay: as above
[15] = molecular target: MtKNOX6-YN (Medicago truncatula); assay: as above
[16] = molecular target: MtKNOX7-YN (Medicago truncatula); assay: as above

Measured: binding

B1: PINNA1-7Myc (protein, UniProt A0A6C0N3V9 1-443)
chain: MMSNSMTHQNQFENQELLGGGYVSSSLRNNNAYHESLGTFSNNIGLAQGSEMSHTRHLMDLLGAANENNHQTQQGLSLSLGSHMLVDEYRNRSLNQGLMINPSYFMPGQDQTREPCNQPVVENLTSDYFFSGGSGTFASGSNNNNSLLLNRSTSTSYGSESFGSVIGNSRYLKPVQSLLEDLVDVGGNVIDRMNEKYAEKLFHGSRTGARTLSSELKAELRIHGHLLADKHEHQVKIAKLISLLDEVEGRYEKYYHQMEEVVSSFEMIAGLGAAKCYTALALQAMSRHFCSLRDAIMSQINAEKRKLFQDVPKINSGLSQLSLFERDNNRQTRMSLQQLGVIQNQRQVWRPIRGLPETSVAILRAWLFEHFLHPYPNDSEKLILASQTGLTKNQVSNWFINARVRLWKPMIEEMYKEEFGDSSEDSNPPANNFMSREDSTVED
binds: [1] | [2] | [3] | [4]

B2: PINNA1-AD (protein, UniProt A0A6C0N3V9 1-443)
chain: B1 chain
binds: [5] | [6] | [7] | [8] | [9] | [10] | [11] | [12]

B3: PINNA1-YC (protein, UniProt A0A6C0N3V9 1-443)
chain: B1 chain
binds: [13] | [14] | [15] | [16]

No constants are given. Whether binding was seen depends on the method and setting. Binding calls can cover weak binding; strength is not graded here. For some of these results: Sequences can lack the tags named with a protein. For some of these results: In cells and extracts the contact can be indirect.
